Laboratory results taken from doi:10.1101/2025.05.21.655409.
Results are given in words; binding and its absence hold for the method and conditions named. Some results given as binding are weak or reduced against the parent protein; the word gives no strength.

Molecular target: Cullin 5 (CUL5) (UniProt Q93034)
Test: co-purification (Ni-NTA, then SEC); proteins co-expressed in E. coli; clarified lysate on Ni-NTA resin, wash with 400 mM NaCl and 30 mM imidazole, then Superdex 200 16x600 in 20 mM Tris-HCl pH 8.0, 100 mM NaCl, 5% glycerol, 1 mM DTT

binding: binds
Substance: RING-Box protein RBX2 (from UniProt Q9UBF6 1-113)
